Results deposited as PubChem BioAssay AID720505 (Drosophila RNAi Screening Center, 2013)
The deposit covers about 20,000 reagents; shown is a random part of those that have a named target and a result. Of all reagents, about 2,100 (10%) are marked active. 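Raw plate signals without normalisation; calls rest on control-based scores that were not deposited; replicate 2 separates called from uncalled poorly.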 Names joined by + are all predicted targets of the reagent. Not stated in the record: the amount of reagent, the time to read-out.

Assay: 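Knock-downs that reduce calcium influx once internal stores are emptied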 (primary screen)
System: Drosophila S2R+ cells
Reagents: long dsRNA against Drosophila genes
Treatment: thapsigargin (2 µM) in calcium-free buffer to empty internal stores, then 2 mM calcium added back
Measured: 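Stores emptied by 2 µM thapsigargin without calcium, then 2 mM calcium re-added; fluo-4 fluorescence followed by FLIPR in 384-well plates, per-well averaged endpoint, raw; two screen passes, some wells retested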
Scale: calcium signal and retest calcium signal: higher = more calcium entry after store depletion
Call rule: 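About 1500 genes called as lowering calcium entry, by varying amounts, judged against per-plate control wells with STIM1 as positive and Rho1 as negative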
Calls: active = called as lowering calcium entry; inactive = not called

| gene knocked down | DRSC id | calcium signal, replicate 1 | calcium signal, replicate 2 | retest calcium signal, replicate 1 | retest calcium signal, replicate 2 | outcome |
| --- | --- | --- | --- | --- | --- | --- |
| wrapper | DRSC04723 | 193 | 146 | – | – | inactive |
| MSBP (membrane steroid binding protein) | DRSC20146 | 161 | 100 | – | – | inactive |
| CG30467 | DRSC07097 | 111 | 175 | – | – | inactive |
| Papst2 (PAPS transporter 2) | DRSC10924 | 90.6 | 111 | – | – | inactive |
| Or98b (Odorant receptor 98b) | DRSC16775 | 108 | 160 | – | – | active |
| Or98b (Odorant receptor 98b) | DRSC21751 | 137 | 123 | – | – | inactive |
| CG13243 | DRSC01920 | 102 | 110 | – | – | inactive |
| Camp (Cathelicidin-like antimicrobial protein) | DRSC07004 | 224 | 135 | – | – | inactive |
| CG7320 | DRSC10810 | 113 | 205 | – | – | inactive |
| CG13675 | DRSC10034 | 58.6 | 66.4 | – | – | inactive |
| CG13675 | DRSC23124 | 104 | 185 | – | – | inactive |
| Atg5 (Autophagy-related 5) | DRSC18112 | 130 | 139 | – | – | inactive |
| CG14718 | DRSC14941 | 104 | 156 | – | – | inactive |
| Ugt36A1 (UDP-glycosyltransferase family 36 member A1) | DRSC00748 | 173 | 119 | – | – | inactive |
| CG2611 | DRSC02710 | 87.5 | 109 | – | – | inactive |
| chic (chickadee) | DRSC03507 | 168 | 97.5 | – | – | inactive |
| Smr (Smrter) | DRSC19495 | 134 | 81.3 | – | – | inactive |
| Smr (Smrter) | DRSC20288 | 121 | 95 | – | – | inactive |
| Smr (Smrter) | DRSC22986 | 128 | 151 | – | – | inactive |
| CG6409 | DRSC10630 | 87.8 | 111 | 186 | 133 | inactive |
| CG6409 | DRSC22330 | 121 | 209 | – | – | inactive |
| siz (schizo) | DRSC11622 | 92.2 | 116 | – | – | inactive |
| siz (schizo) | DRSC11689 | 86.4 | 123 | – | – | inactive |
| siz (schizo) | DRSC11690 | 90.2 | 96.5 | – | – | inactive |
| vib (vibrator) | DRSC17094 | 195 | 192 | – | – | inactive |
| Pgant6 (Polypeptide N-Acetylgalactosaminyltransferase 6) | DRSC08552 | 69.2 | 142 | – | – | active |
| Oli (Olig family) | DRSC02866 | 71.8 | 132 | – | – | inactive |
| se (sepia) | DRSC10713 | 70.9 | 64.4 | – | – | inactive |
| Abi (Abelson interacting protein) | DRSC14099 | 98.8 | 146 | – | – | inactive |
| HDAC3 (Histone deacetylase 3) | DRSC12352 | 91.9 | 187 | – | – | inactive |
| wal (walrus) | DRSC07717 | 193 | 120 | – | – | inactive |
| Obp50b + Obp50c | DRSC21818 | 162 | 81.3 | – | – | inactive |
| PTP-ER (Protein tyrosine phosphatase-ERK/Enhancer of Ras1) | DRSC04636 | 209 | 78.7 | – | – | inactive |
| PTP-ER (Protein tyrosine phosphatase-ERK/Enhancer of Ras1) | DRSC23325 | 115 | 148 | – | – | inactive |
| CG7365 | DRSC10824 | 99.3 | 117 | – | – | inactive |
| CG12708 | DRSC19490 | 93.4 | 155 | – | – | inactive |
| CG4653 | DRSC19909 | 99 | 95.1 | 118 | 145 | inactive |
| CG4653 | DRSC22857 | 82.7 | 99.3 | – | – | inactive |
| Vajk1 | DRSC01882 | 117 | 127 | – | – | inactive |
| CG12567 | DRSC20845 | 69.2 | 134 | – | – | active |
| Arf4 (ADP ribosylation factor 4) | DRSC17195 | 74.6 | 129 | – | – | inactive |
| san (separation anxiety) | DRSC07695 | 125 | 151 | – | – | inactive |
| lola (longitudinals lacking) | DRSC05220 | 77.7 | 111 | – | – | inactive |
| lola (longitudinals lacking) | DRSC05221 | 72.6 | 112 | – | – | inactive |
| lola (longitudinals lacking) | DRSC05222 | 74.8 | 93.7 | – | – | inactive |
| lola (longitudinals lacking) | DRSC05223 | 77 | 102 | – | – | inactive |
| lola (longitudinals lacking) | DRSC05224 | 95.3 | 141 | – | – | inactive |
| lola (longitudinals lacking) | DRSC06738 | 153 | 130 | – | – | inactive |
| lola (longitudinals lacking) | DRSC06739 | 133 | 137 | – | – | inactive |
| lola (longitudinals lacking) | DRSC06740 | 159 | 97.2 | – | – | inactive |
| lola (longitudinals lacking) | DRSC06741 | 129 | 166 | – | – | inactive |
| lola (longitudinals lacking) | DRSC06742 | 144 | 183 | – | – | inactive |
| lola (longitudinals lacking) | DRSC07646 | 194 | 98.2 | – | – | inactive |
| lola (longitudinals lacking) | DRSC07647 | 94.9 | 142 | – | – | inactive |
| CG43666 + CG43667 + CG43668 | DRSC03829 | 87 | 6626 | – | – | inactive |
| CG43666 + CG43667 + CG43668 | DRSC04233 | 223 | 78.9 | – | – | inactive |

Copied from above (4 entries):
| gene knocked down | DRSC id | calcium signal, replicate 1 | calcium signal, replicate 2 | retest calcium signal, replicate 1 | retest calcium signal, replicate 2 | outcome |
| --- | --- | --- | --- | --- | --- | --- |
| HDAC3 (Histone deacetylase 3) | DRSC12352 | 91.9 | 187 | – | – | inactive |
| wal (walrus) | DRSC07717 | 193 | 120 | – | – | inactive |
| Obp50b + Obp50c | DRSC21818 | 162 | 81.3 | – | – | inactive |
| PTP-ER (Protein tyrosine phosphatase-ERK/Enhancer of Ras1) | DRSC04636 | 209 | 78.7 | – | – | inactive |
